# Laboratory results taken from the supplement of paper PMC3334620.
# In all, about 33,000 sequences were measured (“E-score (-0.5 to 0.5)”: median about -0.015, highest 2% from about 0.3 on). The list shows a part of the results.
# Target: T1, Abf1 (UniProt P14164)
# T1 sequence: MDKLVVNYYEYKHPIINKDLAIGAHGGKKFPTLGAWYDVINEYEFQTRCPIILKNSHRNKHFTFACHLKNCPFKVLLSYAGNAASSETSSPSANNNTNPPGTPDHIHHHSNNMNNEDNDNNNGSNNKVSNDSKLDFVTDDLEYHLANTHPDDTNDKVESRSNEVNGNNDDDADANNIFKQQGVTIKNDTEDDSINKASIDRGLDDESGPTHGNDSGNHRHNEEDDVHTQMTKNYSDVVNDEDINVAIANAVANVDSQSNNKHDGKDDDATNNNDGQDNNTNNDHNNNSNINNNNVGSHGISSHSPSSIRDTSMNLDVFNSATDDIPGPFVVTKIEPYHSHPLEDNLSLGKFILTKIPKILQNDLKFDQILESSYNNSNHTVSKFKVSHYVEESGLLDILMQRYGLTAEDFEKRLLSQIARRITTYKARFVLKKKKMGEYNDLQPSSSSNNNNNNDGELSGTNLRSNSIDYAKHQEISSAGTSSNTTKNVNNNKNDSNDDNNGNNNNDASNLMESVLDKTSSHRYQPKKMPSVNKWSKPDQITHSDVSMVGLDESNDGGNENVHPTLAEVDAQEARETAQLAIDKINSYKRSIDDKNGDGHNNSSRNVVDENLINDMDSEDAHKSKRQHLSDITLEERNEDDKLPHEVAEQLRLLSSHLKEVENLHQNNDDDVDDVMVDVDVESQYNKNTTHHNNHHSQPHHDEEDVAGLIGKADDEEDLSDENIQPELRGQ
# Assay: PBM E-score (8-mer binding enrichment) (E-score (-0.5 to 0.5)); higher = stronger / more preferred TF binding
# Settings: protein concentration: 200 nM; construct: GST-full length
# Procedure, shortened: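 Each ungapped eight-base word and its reverse complement, pooled, received an E-score from the Universal PBM Analysis Suite. Underlying scans, normalised with masliner, recorded fluorescent anti-GST bound to GST-tagged yeast transcription factors. These were applied at about 100-200 nM to universal all-10-mer Agilent arrays double-stranded by primer extension.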
row,Sequence,PBM E-score
1,GTTAGGCA,-0.238
2,CGTTGGCA,0.129
3,AACATCGT,0.236
4,GATAAACC,0.165
5,GGGGTTGA,-0.0538
6,CTAGAGAC,-0.201
7,GACCTCTC,-0.047
8,CTCGGAAG,-0.176
9,AACTACCG,0.00871
10,AAAGGGTG,-0.0403
11,CCTACCGA,-0.148
12,ACGGATTG,0.22
13,GATGCTGC,-0.196
14,ACATGTGC,0.0714
15,CGGGTCGA,-0.105
16,ACTTTGAG,0.086
17,AGTAAATG,0.126
18,AACGATCC,-0.00029
19,CAAGCCGC,-0.184
20,ATTGCATG,0.0833
21,GCTTTGTA,0.158
22,CCCTGCCC,-0.24
23,CAGTCCTC,-0.151
24,ATCCCGTC,-0.0101
25,AATGGTCG,-0.0391

row,Sequence,PBM E-score
1,AAGGGGGT,-0.379
2,ACGGTACA,0.214
3,CAAAGGAG,-0.199
4,CATGACGA,0.374
5,TCATGAGA,0.138
6,GCGCCGTA,0.291
7,CACTGATG,-0.0715
8,ATAAAGAG,-0.0776
9,AAACGTGT,0.0388
10,GACGGCCA,0.0316
11,CAAGCCCG,-0.172
12,ATAAGTCA,0.169
13,ACTTATAA,0.00352
14,TCTGAGAA,0.0923
15,GAAGTTAC,0.179
16,CCAATACA,-0.169
17,GATTGTAC,-0.114
18,ATCGCGAG,0.138
19,AGTAGCAG,-0.05
20,GGGAGCAC,-0.278
21,TACCAGCA,0.0002
22,ATCATTCG,0.332
23,CACCATAA,0.073
24,AGATGGCG,0.0792
25,GTATTTTA,0.0901

row,Sequence,PBM E-score
1,ACCTGTGA,0.0512
2,AGGTGTGG,-0.0954
3,GTCTAGGA,-0.0207
4,AAGTCCGA,-0.109
5,TAAAGGGA,-0.112
6,AGATACGG,0.129
7,GATATAGC,0.228
8,CAAGCCCA,-0.227
9,CAATCGAA,0.102
10,AACTGGTG,-0.0816
11,AAGCTGGA,-0.153
12,CACCATCA,-0.134
13,TAGAGGCA,-0.138
14,GTTTCTCA,-0.0255
15,GGGGAAAC,-0.187
16,GTATTGAC,0.00364
17,ACGACCGA,0.0201
18,CTCATGGA,0.00022
19,ATCCAATG,-0.158
20,AAGAGACC,-0.0347
21,GGGATGTA,0.0488
22,CCAGGAGC,-0.267
23,GACACTCC,-0.012
24,GACACATC,0.00853
25,AAGAGCCA,-0.0178

row,Sequence,PBM E-score
1,CTGCGATA,0.0546
2,CCTTTTAA,0.0637
3,GGAAACCC,-0.156
4,GCGTTAAA,0.118
5,AAACCAAT,0.137
6,GCATATCA,0.319
7,GCCTTTCC,-0.0427
8,CAGCTAAA,-0.108
9,CAACATGA,0.159
10,AGCAGTAT,0.0121
11,GGGGAGAC,-0.242
12,AACGTATT,0.148
13,ATCCACTA,0.0769
14,CTCCCGAA,-0.115
15,CACAGTGC,-0.0692
16,CTTCACGC,0.135
17,CCTTTCCG,-0.0908
18,AACTCAGA,-0.0967
19,AAAATGCA,-0.0998
20,CCATGGCG,-0.0796
21,CCGATTGA,0.0352
22,AACGTGAT,0.327
23,CCAAAATC,0.0893
24,AAATTTTA,0.0691
25,GCGCCACA,-0.0558

# Six neighbouring entries already listed, quoted:
row,Sequence,PBM E-score
16,CTTCACGC,0.135
17,CCTTTCCG,-0.0908
18,AACTCAGA,-0.0967
19,AAAATGCA,-0.0998
20,CCATGGCG,-0.0796
21,CCGATTGA,0.0352

# Additional entries.

row,Sequence,PBM E-score
1,AGACGCCC,-0.142
2,AATTACAG,0.0441
3,CCTATCCC,0.0149
4,ATGTGCCA,0.0289
5,ATCCTGAG,0.0562
6,CCACTGGA,-0.125
7,CTTAAAGC,0.115
8,ACCCAGTC,-0.124
9,CGAAGCAA,0.105
10,CGCTCAAG,0.00588
11,TCCCAACA,-0.0284
12,CCTCAACA,0.0393
13,AGTCCTAT,-0.176
14,CAGTTCCA,-0.227
15,CACACTGC,-0.17
16,CCCGCGAG,0.0427
17,AAAATCAC,0.352
18,CGAACCAA,0.0494
19,AAAGTTCG,0.0641
20,GGACTTAA,-0.101
21,GTAGAAAC,-0.0136
22,ATTTGCTA,0.0209
23,AAAATTTT,0.0368
24,AACCGTAG,0.238
25,AAGGTGAA,-0.118

row,Sequence,PBM E-score
1,AGTCAAGA,0.138
2,CTTACCTC,-0.145
3,ACGCTGCG,-0.193
4,ATCCCAGC,0.099
5,CGAAAAAA,0.193
6,GATGTTAC,0.144
7,AGCCACTC,-0.0968
8,GGCATAGA,0.0186
9,CGCTGCAG,-0.278
10,TCAGAGGA,-0.219
11,AAGTAGTC,-0.00394
12,CAAGGCCG,-0.217
13,AAGTGGCT,-0.149
14,CGTCCCTC,0.113
15,CCGTTTCC,-0.2
16,GGGATGGA,-0.117
17,TAACGTGA,0.16
18,CCGAAAGC,-0.2
19,CATGTTCG,0.0859
20,GCAGACTA,-0.0428
21,CCGTTGAC,-0.0281
22,ACCGTCTC,0.105
23,ATGTAAAA,0.152
24,CCTTTCCC,-0.0559
25,ACACCTAC,0.0651

row,Sequence,PBM E-score
1,AAAGATCA,0.164
2,ATCAAGGA,-0.026
3,ACCGACCA,0.0523
4,AGGGAGCG,-0.135
5,ATGCCTTC,-0.283
6,AGCGGTTA,-0.056
7,CTGGTGTA,-0.188
8,CCATCTCG,-0.111
9,ACGATTGG,0.224
10,ATATTCAT,-0.0447
11,CATACCGG,-0.0253
12,ATGGATTG,-0.0113
13,CTTATCAA,0.164
14,CTCTTATC,0.201
15,CAAGGTAA,0.0843
16,AAAATCAG,0.193
17,GGCTGGCA,-0.227
18,AGAGAAGC,-0.262
19,AGTACTAC,0.127
20,GCTCTACA,-0.114
21,ATTCATAC,0.287
22,AACCATCA,-0.07
